These are yes or no findings as the source states them, for the method shown. For part of these data: Binding seen in cells or lysates may run through a third protein. Some entries that bind do so weakly or less than the wild type. For part of these data: Sequences can lack the tags named with a protein.
What was measured:
[1] = target: T1, Retinoic acid-inducible gene I (RIG-I), full length, yeast two-hybrid bait (human) (UniProt O95786); assay: two-hybrid; large-scale yeast two-hybrid screen with full-length RIG-I as bait protein
T1 sequence: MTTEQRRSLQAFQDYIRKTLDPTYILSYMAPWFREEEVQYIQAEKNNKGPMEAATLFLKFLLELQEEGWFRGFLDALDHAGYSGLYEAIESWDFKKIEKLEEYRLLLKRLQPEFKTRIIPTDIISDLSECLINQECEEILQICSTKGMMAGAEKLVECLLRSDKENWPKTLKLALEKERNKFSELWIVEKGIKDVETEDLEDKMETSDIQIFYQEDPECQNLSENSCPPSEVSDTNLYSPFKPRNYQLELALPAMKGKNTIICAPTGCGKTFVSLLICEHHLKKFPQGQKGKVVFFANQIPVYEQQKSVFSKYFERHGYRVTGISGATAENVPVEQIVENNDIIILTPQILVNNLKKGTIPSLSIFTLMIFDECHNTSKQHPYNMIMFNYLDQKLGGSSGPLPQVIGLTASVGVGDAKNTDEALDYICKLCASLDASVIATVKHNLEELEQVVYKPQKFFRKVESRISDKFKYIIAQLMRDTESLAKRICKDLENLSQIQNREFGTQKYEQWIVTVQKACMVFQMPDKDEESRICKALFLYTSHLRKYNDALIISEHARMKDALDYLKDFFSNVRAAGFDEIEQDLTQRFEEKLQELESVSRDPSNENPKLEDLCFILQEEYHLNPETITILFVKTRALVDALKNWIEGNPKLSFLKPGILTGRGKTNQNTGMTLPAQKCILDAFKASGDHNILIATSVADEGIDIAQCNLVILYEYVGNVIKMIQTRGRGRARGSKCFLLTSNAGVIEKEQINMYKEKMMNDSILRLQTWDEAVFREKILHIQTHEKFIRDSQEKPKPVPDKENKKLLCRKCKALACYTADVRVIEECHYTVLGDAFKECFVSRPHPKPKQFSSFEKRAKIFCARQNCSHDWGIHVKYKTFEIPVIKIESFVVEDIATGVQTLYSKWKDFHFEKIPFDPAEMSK

Protein sequences, listed by entry. Tags and fused reporters are not part of them.
UniProt Q7Z434: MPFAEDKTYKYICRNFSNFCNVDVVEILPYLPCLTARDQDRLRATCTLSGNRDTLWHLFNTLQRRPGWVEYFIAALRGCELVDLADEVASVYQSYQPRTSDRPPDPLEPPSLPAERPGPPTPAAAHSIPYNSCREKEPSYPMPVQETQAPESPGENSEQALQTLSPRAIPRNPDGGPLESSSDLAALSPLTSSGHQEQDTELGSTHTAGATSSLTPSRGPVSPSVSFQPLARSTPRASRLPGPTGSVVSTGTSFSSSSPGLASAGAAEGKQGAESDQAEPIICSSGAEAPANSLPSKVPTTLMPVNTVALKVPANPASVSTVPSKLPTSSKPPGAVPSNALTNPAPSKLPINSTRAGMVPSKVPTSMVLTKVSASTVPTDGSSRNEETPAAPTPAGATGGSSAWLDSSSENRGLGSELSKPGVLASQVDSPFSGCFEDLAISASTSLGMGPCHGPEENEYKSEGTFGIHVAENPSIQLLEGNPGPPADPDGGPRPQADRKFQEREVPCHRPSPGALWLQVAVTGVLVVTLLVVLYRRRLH

[2] = target: Mitochondrial antiviral signaling (MAVS) protein, transfected in 293T cells (UniProt Q7Z434); assay: co-IP; 293T cells transfected with expression plasmids, uninfected or infected with SeV; lysis in 1% Triton, 20 mM Tris-HCl pH 7.5, 150 mM NaCl, 1 mM EDTA; protein G/A-Sepharose beads with the indicated antibodies overnight at 4°C; immunoblot
[3] = target: T2, Retinoic acid-inducible gene I (RIG-I), transfected in 293T cells (Figures 1A and 1E; tag not told) (human) (UniProt O95786); assay: as above
T2 sequence: T1 sequence

[4] = target: T3, Retinoic acid-inducible gene I (RIG-I), endogenous in 293T cells (human (endogenous in 293T)) (UniProt O95786); assay: co-IP; endogenous proteins; 293T cells uninfected or infected with SeV for 4 or 8 h; lysates immunoprecipitated with control IgG or anti-RIG-I antibody; immunoblot
T3 sequence: T1 sequence

HA-RIG-I (human) = target: T4, HA-RIG-I (human) (UniProt O95786); assay: co-IP; 293T cells transfected with expression plasmids, uninfected or infected with SeV; lysis in 1% Triton, 20 mM Tris-HCl pH 7.5, 150 mM NaCl, 1 mM EDTA; protein G/A-Sepharose beads with the indicated antibodies overnight at 4°C; immunoblot
T4 sequence: T1 sequence

[5] = target: T5, FLAG-tagged RIG-I-N (1-284), N-terminal CARD of RIG-I (human) (UniProt O95786); assay: as above
T5 sequence: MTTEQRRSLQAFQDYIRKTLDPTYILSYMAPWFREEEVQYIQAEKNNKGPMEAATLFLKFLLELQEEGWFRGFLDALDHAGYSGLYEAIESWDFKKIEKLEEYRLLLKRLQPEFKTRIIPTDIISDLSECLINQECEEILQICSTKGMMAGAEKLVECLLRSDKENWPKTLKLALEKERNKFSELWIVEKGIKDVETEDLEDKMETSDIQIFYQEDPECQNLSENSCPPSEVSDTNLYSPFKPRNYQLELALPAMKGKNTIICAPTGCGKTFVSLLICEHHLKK

B1: Zinc finger protein 205 (ZNF205), yeast two-hybrid prey (protein, UniProt O95201 1-554)
chain: MSADGGGIQDTQDKETPPEVPDRGHPHQEMPSKLGEAVPSGDTQESLHIKMEPEEPHSEGASQEDGAQGAWGWAPLSHGSKEKALFLPGGALPSPRIPVLSREGRTRDRQMAAALLTAWSQMPVTFEDVALYLSREEWGRLDHTQQNFYRDVLQKKNGLSLGFPFSRPFWAPQAHGKGEASGSSRQAGDEKEWRGACTGAVEVGQRVQTSSVAALGNVKPFRTRAGRVQWGVPQCAQEAACGRSSGPAKDSGQPAEPDRTPDAAPPDPSPTEPQEYRVPEKPNEEEKGAPESGEEGLAPDSEVGRKSYRCEQCGKGFSWHSHLVTHRRTHTGEKPYACTDCGKRFGRSSHLIQHQIIHTGEKPYTCPACRKSFSHHSTLIQHQRIHTGEKPYVCDRCAKRFTRRSDLVTHQGTHTGAKPHKCPICAKCFTQSSALVTHQRTHTGVKPYPCPECGKCFSQRSNLIAHNRTHTGEKPYHCLDCGKSFSHSSHLTAHQRTHRGVRPYACPLCGKSFSRRSNLHRHEKIHTTGPKALAMLMLGAAAAGALATPPPAPT
Question: How did the binding [1] turn out when B1 was run?
Answer: binds

B2: Zinc finger protein 205 (ZNF205), transfected in 293T cells (Figure 1A; tag not told) (protein, UniProt O95201 1-554)
chain: B1 chain
Question: Which binding [2] does the source give for B2 here?
Answer: binds

Question: What about the binding [3] of the same binder?
Answer: binds

B3: Zinc finger protein 205 (ZNF205), endogenous in 293T cells (protein, UniProt O95201 1-554)
chain: B1 chain
Question: How did the binding [4] turn out when B3 was run?
Answer: binds

B4: FLAG-tagged ZNF205 (aa300-554), C-terminal zinc finger domain (domain or fragment, UniProt O95201 300-554)
chain: DSEVGRKSYRCEQCGKGFSWHSHLVTHRRTHTGEKPYACTDCGKRFGRSSHLIQHQIIHTGEKPYTCPACRKSFSHHSTLIQHQRIHTGEKPYVCDRCAKRFTRRSDLVTHQGTHTGAKPHKCPICAKCFTQSSALVTHQRTHTGVKPYPCPECGKCFSQRSNLIAHNRTHTGEKPYHCLDCGKSFSHSSHLTAHQRTHRGVRPYACPLCGKSFSRRSNLHRHEKIHTTGPKALAMLMLGAAAAGALATPPPAPT
Question: Which binding (HA-RIG-I (human)) does the source give for B4 here?
Answer: binds

B5: myc-ZNF205 (protein, UniProt O95201 1-554)
chain: B1 chain
Question: For B5, which binding [5] is on record?
Answer: binds

From article PMC10577479
